According to article PMC10313818:
These are yes or no findings as the source states them, for the method shown. Binding seen in cells or lysates may run through a third protein. Some binding calls cover weakened binding; strength is not graded here.

By UniProt entry, the sequences of proteins in these tests, tags left out. Residues count along the entry.
UniProt O43676: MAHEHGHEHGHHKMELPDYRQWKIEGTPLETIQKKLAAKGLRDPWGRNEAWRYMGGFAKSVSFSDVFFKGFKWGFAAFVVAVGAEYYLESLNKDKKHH
UniProt O43920: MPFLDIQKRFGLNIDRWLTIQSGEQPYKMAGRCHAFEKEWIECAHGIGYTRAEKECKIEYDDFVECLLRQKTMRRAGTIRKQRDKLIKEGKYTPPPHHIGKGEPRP
UniProt P15954, residues 17-63: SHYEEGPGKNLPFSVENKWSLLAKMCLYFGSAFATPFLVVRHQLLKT
UniProt P14406, residues 24-83: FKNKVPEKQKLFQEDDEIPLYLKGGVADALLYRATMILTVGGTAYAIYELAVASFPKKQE
UniProt P10809, residues 27-573: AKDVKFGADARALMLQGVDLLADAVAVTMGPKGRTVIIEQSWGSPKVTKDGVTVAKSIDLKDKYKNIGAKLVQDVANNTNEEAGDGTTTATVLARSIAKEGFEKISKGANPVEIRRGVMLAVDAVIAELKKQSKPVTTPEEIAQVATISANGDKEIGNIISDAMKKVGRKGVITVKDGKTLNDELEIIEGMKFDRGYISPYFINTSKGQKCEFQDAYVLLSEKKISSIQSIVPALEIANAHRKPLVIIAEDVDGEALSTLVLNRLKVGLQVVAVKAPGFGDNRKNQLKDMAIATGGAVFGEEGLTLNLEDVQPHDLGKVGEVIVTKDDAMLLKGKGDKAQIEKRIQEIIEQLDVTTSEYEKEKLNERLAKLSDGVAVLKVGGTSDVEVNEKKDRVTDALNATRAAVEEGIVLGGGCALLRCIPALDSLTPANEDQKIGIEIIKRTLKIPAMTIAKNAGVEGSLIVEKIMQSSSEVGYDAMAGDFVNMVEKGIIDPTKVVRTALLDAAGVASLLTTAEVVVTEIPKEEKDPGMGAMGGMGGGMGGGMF

Experiments:
Experiment in all cases: cross-linking; CD-MS: DSS delivered by 70DSS-DDAB@PLGA/Kolliphor EL nanoparticles (1.8 mg/mL in medium, 6 h, 37 °C, 5% CO2) to the mitochondria of living HepG2 cells; proteins extracted and digested (i-FASP, trypsin), 30 high-pH RPLC fractions, LC-MS/MS, cross-linked peptides identified with pLink 2.0 against MitoCarta3.0 (FDR 1% at the spectrum level)
[1] = biological target: NDUFB3 (human (endogenous in HepG2)) (UniProt O43676)
[2] = biological target: NDUFS5 (human (endogenous in HepG2)) (UniProt O43920)
[3] = biological target: COX7C (human (endogenous in HepG2)) (UniProt P15954)
[4] = biological target: T1, pyruvate dehydrogenase E1 component subunit α (PDHA1) (human (endogenous in HepG2)) (UniProt P08559)
T1 sequence: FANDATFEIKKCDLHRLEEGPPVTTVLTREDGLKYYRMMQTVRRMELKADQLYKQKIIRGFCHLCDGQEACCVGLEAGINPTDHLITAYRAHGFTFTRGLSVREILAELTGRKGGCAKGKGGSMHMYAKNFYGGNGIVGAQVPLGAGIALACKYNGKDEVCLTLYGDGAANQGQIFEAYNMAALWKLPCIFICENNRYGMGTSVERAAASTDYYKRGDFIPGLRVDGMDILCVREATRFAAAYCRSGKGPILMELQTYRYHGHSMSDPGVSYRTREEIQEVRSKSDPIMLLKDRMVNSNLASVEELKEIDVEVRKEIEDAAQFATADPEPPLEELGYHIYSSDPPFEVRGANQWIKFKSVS

[5] = biological target: T2, succinate dehydrogenase [ubiquinone] iron-sulfur subunit (SDHB) (human (endogenous in HepG2)) (UniProt P21912)
T2 sequence: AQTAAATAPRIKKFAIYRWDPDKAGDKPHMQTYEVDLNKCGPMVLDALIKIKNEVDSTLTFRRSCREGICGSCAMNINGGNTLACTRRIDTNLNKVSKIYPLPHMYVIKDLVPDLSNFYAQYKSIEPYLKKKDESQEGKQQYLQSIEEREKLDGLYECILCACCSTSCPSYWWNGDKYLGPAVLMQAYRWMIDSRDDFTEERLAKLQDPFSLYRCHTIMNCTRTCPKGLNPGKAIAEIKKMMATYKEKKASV

[6] = biological target: citrin (SLC25A13) (human (endogenous in HepG2)) (UniProt Q9UJS0)

Molecule: COX7A2 (from UniProt P14406 24-83)
- binding [1]: binds

Molecule: HSPD1 (from UniProt P10809 27-573)
- binding [2]: binds
- binding [3]: binds

B1: 2-oxoglutarate dehydrogenase-like (OGDHL) (protein, UniProt Q9ULD0 74-1010)
chain: FREASEEAFSGSAQPRPPSVVHESRSAVSSRTKTSKLVEDHLAVQSLIRAYQIRGHHVAQLDPLGILDADLDSFVPSDLITTIDKLAFYDLQEADLDKEFQLPTTTFIGGSENTLSLREIIRRLENTYCQHIGLEFMFINDVEQCQWIRQKFETPGVMQFSSEEKRTLLARLVRSMRFEDFLARKWSSEKRFGLEGCEVMIPALKTIIDKSSEMGIENVILGMPHRGRLNVLANVIRKDLEQIFCQFDPKLEAADEGSGDVKYHLGMYHERINRVTNRNITLSLVANPSHLEAVDPVVQGKTKAEQFYRGDAQGKKVMSILVHGDAAFAGQGVVYETFHLSDLPSYTTNGTVHVVVNNQIGFTTDPRMARSSPYPTDVARVVNAPIFHVNADDPEAVIYVCSVAAEWRNTFNKDVVVDLVCYRRRGHNEMDEPMFTQPLMYKQIHRQVPVLKKYADKLIAEGTVTLQEFEEEIAKYDRICEEAYGRSKDKKILHIKHWLDSPWPGFFNVDGEPKSMTCPATGIPEDMLTHIGSVASSVPLEDFKIHTGLSRILRGRADMTKNRTVDWALAEYMAFGSLLKEGIHVRLSGQDVERGTFSHRHHVLHDQEVDRRTCVPMNHLWPDQAPYTVCNSSLSEYGVLGFELGYAMASPNALVLWEAQFGDFHNTAQCIIDQFISTGQAKWVRHNGIVLLLPHGMEGMGPEHSSARPERFLQMSNDDSDAYPAFTKDFEVSQLYDCNWIVVNCSTPANYFHVLRRQILLPFRKPLIIFTPKSLLRHPEAKSSFDQMVSGTSFQRVIPEDGAAARAPEQVQRLIFCTGKVYYDLVKERSSQDLEEKVAITRLEQISPFPFDLIKQEAEKYPGAELAWCQEEHKNMGYYDYISPRFMTILRRARPIWYVGRDPAAAPATGNRNTHLVSLKKFLDTAFNLQAFEGKTF
- binding [4]: binds

B2: succinate dehydrogenase cytochrome b560 subunit (SDHC) (protein, UniProt Q99643 30-169)
chain: LGTTAKEEMERFWNKNIGSNRPLSPHITIYSWSLPMAMSICHRGTGIALSAGVSLFGMSALLLPGNFESYLELVKSLCLGPALIHTAKFALVFPLMYHTWNGIRHLMWDLGKGLKIPQLYQSGVVVLVLTVLSSMGLAAM
- binding [5]: binds

B3: citrin (SLC25A13) (protein, UniProt Q9UJS0 1-675)
chain: MAAAKVALTKRADPAELRTIFLKYASIEKNGEFFMSPNDFVTRYLNIFGESQPNPKTVELLSGVVDQTKDGLISFQEFVAFESVLCAPDALFMVAFQLFDKAGKGEVTFEDVKQVFGQTTIHQHIPFNWDSEFVQLHFGKERKRHLTYAEFTQFLLEIQLEHAKQAFVQRDNARTGRVTAIDFRDIMVTIRPHVLTPFVEECLVAAAGGTTSHQVSFSYFNGFNSLLNNMELIRKIYSTLAGTRKDVEVTKEEFVLAAQKFGQVTPMEVDILFQLADLYEPRGRMTLADIERIAPLEEGTLPFNLAEAQRQKASGDSARPVLLQVAESAYRFGLGSVAGAVGATAVYPIDLVKTRMQNQRSTGSFVGELMYKNSFDCFKKVLRYEGFFGLYRGLLPQLLGVAPEKAIKLTVNDFVRDKFMHKDGSVPLAAEILAGGCAGGSQVIFTNPLEIVKIRLQVAGEITTGPRVSALSVVRDLGFFGIYKGAKACFLRDIPFSAIYFPCYAHVKASFANEDGQVSPGSLLLAGAIAGMPAASLVTPADVIKTRLQVAARAGQTTYSGVIDCFRKILREEGPKALWKGAGARVFRSSPQFGVTLLTYELLQRWFYIDFGGVKPMGSEPVPKSRINLPAPNPDHVGGYKLAVATFAGIENKFGLYLPLFKPSVSTSKAIGGGP
- binding [6]: binds
